{"sequences": {"note": "Chains of the proteins cited; added tags and fusions are not shown. Lines headed by an entry give the natural chain unless they say otherwise; changes in a name come on top.", "UniProt A0A509AQF6": "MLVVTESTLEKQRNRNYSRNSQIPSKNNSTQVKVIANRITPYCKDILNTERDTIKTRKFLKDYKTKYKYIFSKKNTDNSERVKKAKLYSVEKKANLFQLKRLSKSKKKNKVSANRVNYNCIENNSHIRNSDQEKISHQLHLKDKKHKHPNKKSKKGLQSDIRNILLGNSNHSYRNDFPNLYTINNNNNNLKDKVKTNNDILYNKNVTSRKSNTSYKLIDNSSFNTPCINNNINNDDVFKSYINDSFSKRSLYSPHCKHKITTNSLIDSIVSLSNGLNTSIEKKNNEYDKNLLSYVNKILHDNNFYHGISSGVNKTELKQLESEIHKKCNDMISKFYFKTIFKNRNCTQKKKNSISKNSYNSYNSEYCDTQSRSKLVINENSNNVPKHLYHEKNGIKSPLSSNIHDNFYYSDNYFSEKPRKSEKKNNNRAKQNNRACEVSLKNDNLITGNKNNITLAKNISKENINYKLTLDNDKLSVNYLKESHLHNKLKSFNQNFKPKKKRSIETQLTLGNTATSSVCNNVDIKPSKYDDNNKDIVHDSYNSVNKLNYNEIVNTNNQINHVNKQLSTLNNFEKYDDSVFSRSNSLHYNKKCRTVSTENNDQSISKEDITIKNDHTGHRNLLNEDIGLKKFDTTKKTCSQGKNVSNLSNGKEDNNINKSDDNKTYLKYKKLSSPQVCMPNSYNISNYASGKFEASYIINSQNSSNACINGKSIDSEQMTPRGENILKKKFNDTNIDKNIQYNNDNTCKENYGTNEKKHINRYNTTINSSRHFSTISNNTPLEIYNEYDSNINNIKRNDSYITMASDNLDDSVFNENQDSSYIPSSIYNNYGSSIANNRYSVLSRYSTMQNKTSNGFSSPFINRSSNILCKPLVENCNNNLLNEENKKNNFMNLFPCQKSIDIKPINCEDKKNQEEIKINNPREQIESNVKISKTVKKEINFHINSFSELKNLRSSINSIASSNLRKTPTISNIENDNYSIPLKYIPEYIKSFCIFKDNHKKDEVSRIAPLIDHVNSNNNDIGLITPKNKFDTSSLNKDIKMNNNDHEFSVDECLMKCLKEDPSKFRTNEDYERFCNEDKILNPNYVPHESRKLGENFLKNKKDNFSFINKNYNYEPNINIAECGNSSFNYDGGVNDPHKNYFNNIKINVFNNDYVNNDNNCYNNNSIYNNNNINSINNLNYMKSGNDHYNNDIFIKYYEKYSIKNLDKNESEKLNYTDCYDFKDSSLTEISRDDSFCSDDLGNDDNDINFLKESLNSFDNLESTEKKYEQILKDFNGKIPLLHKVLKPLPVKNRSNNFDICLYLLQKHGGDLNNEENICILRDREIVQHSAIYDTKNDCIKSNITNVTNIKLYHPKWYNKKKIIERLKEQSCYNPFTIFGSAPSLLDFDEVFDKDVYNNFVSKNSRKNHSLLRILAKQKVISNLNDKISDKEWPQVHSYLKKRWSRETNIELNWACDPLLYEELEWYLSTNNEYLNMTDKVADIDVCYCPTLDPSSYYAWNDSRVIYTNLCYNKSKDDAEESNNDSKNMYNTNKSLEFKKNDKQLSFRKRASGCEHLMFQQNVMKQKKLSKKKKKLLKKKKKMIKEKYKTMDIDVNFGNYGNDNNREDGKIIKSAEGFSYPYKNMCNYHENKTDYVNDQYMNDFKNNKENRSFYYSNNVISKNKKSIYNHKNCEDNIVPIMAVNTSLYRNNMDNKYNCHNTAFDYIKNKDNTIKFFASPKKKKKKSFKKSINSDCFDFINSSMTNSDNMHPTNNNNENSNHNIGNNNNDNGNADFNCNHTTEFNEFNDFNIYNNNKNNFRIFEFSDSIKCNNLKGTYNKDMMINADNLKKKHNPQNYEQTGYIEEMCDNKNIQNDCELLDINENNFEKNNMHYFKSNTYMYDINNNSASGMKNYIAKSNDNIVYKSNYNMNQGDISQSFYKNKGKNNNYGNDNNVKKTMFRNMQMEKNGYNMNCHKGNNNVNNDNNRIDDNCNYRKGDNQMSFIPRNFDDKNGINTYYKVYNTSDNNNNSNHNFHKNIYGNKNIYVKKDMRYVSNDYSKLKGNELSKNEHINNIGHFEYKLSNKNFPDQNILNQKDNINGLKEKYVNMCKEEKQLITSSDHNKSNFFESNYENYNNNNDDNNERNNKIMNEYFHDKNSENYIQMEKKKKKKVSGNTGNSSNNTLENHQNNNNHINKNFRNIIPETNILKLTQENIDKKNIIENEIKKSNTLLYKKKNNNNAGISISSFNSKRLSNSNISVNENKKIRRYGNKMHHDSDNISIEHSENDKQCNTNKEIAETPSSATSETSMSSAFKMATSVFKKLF", "UniProt A0A509AJF0": "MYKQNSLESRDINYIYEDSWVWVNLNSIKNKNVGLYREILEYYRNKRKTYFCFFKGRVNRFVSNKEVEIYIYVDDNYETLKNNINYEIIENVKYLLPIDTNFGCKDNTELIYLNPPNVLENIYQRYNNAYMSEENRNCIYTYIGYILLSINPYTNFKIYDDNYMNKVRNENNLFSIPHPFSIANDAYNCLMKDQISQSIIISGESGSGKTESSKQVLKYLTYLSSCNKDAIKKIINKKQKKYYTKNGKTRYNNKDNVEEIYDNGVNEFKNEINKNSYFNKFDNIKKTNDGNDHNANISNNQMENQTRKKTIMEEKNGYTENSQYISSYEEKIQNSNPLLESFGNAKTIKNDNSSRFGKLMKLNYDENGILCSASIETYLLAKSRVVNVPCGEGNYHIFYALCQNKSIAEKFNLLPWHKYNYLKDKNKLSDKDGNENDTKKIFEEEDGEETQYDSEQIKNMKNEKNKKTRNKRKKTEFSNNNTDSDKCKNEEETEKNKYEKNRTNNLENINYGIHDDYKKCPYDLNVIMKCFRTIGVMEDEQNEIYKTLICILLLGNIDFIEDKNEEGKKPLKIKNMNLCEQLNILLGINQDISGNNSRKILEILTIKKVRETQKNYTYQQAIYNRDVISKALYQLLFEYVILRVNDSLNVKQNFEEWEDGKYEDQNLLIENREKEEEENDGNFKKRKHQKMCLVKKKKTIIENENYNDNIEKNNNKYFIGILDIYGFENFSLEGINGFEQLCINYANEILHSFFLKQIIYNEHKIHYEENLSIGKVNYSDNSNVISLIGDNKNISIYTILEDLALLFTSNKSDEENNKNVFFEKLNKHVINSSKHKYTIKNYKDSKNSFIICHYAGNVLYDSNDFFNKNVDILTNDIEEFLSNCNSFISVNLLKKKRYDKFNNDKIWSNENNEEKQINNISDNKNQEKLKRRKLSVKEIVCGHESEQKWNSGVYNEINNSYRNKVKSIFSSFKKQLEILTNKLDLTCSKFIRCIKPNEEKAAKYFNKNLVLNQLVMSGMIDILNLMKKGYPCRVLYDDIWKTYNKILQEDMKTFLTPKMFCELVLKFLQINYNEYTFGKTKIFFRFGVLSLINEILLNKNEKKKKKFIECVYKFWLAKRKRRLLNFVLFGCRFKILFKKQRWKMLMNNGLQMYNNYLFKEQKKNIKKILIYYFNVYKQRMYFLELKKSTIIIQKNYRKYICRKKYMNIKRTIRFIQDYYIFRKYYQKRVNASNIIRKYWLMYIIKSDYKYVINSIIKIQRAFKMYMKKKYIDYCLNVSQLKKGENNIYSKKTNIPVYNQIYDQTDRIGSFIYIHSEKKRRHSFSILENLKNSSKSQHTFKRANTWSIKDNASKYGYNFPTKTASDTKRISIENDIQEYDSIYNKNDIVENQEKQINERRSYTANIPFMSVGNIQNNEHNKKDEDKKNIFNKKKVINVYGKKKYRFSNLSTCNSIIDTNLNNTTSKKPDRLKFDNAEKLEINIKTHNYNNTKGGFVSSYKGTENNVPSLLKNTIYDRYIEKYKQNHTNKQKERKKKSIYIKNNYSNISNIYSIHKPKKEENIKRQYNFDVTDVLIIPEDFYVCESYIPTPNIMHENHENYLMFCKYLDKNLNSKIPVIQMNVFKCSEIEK"}, "source": "paper PMC9934748", "note": "No constants are given. Whether binding was seen depends on the method and setting. Binding seen in cells or lysates may run through a third protein. These calls come from enrichment with a bait or labelling near it, and not all partners need be listed.", "data": [{"target": "End-binding protein EB1, C-terminal GFP-tagged (EB1-GFP) (P. berghei)", "assay": "affinity purification with mass spectrometry; GFP-Trap_A beads (Chromotek) on lysates of EB1-GFP gametocytes 1 min post activation, crosslinked with 1% formaldehyde for 10 min; 2 h at 4 °C; on-bead trypsin digest, LC-MS/MS; WT-GFP (GFP alone) gametocytes as control", "values": [{"substance": "CPC subunit INCENP2 (from UniProt A0A509AQF6)", "binding": "binds"}, {"substance": "STU2 (from UniProt A0A509AS96)", "binding": "binds"}, {"substance": "myosin K (from UniProt A0A509AJF0)", "binding": "binds"}]}]}
